Test results as given in PMC12656486.
No constants are given. Whether binding was seen depends on the method and setting. In cells and extracts the contact can be indirect. Binding calls can cover weak binding; strength is not graded here. Where a sequence is shown, tags or fusion partners need not be part of it.

Tests used:
Myc-SMC6 (human) = target: T1, Myc-SMC6 (human) (UniProt Q96SB8); assay: co-IP; GFP-Trap (Nano-Trap magnetic agarose, Chromotek) from HEK293 cells co-transfected with GFP-SIMC1 (WT or mutant; bait), Myc-SMC6 and FLAG-SLF2^CTD (WT, mut1, mut2 or 635–1160); western blot
T1 sequence: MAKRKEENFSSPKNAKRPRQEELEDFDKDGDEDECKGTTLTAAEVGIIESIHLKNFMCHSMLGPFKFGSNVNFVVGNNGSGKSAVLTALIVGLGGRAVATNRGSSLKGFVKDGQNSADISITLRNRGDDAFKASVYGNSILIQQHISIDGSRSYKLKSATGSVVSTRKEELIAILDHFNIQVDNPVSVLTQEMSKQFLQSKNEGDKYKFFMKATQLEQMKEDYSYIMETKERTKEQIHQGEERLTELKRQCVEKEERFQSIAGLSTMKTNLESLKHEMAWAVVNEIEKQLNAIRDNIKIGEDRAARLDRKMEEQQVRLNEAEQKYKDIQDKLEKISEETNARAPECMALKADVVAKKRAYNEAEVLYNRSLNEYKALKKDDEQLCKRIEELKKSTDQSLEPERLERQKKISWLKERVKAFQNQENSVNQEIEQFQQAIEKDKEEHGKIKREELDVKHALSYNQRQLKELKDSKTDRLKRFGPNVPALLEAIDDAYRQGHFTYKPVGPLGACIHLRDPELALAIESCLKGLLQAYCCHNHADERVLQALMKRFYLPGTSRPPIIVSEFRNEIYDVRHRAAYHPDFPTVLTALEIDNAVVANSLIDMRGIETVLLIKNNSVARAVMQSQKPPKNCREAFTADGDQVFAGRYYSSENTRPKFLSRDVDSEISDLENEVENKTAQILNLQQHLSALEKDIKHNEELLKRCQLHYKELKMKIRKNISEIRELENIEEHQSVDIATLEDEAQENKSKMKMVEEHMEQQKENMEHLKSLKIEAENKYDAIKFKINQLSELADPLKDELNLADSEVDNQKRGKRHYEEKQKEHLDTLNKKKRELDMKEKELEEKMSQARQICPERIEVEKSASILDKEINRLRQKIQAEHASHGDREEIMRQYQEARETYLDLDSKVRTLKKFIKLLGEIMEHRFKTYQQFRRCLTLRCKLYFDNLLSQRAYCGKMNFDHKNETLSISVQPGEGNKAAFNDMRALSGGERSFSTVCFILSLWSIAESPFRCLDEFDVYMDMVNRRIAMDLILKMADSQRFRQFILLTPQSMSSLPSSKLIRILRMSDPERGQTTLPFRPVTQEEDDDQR

GFP-SMC6 (human) = target: T2, GFP-SMC6 (human) (UniProt Q96SB8); assay: co-IP; GFP-Trap (Nano-Trap magnetic agarose, Chromotek) from HEK293 cells co-transfected with GFP-SMC6 (WT or mutant; bait), 2Myc-SIMC1 and FLAG-SLF2^CTD; western blot with anti-GFP, FLAG, Myc
T2 sequence: T1 sequence

binding (Myc-SMC6 (human)) | binding (GFP-SMC6 (human)) | Substance
binds |  | FLAG-SLF2^635-1160 (human) (domain or fragment)
no binding |  | FLAG-SLF2^CTD (635–1173) mut1 (human) (domain or fragment)
binds | binds | FLAG-tagged C-terminal domain (CTD) of SLF2 (residues 635–1173) (human) (domain or fragment)
